# Laboratory results reported in PubChem BioAssay AID1439 (NMMLSC, 2008).
# Protein sequences, listed by entry. Tags and fused reporters are not part of them.
# UniProt P09471, whole entry, looked up: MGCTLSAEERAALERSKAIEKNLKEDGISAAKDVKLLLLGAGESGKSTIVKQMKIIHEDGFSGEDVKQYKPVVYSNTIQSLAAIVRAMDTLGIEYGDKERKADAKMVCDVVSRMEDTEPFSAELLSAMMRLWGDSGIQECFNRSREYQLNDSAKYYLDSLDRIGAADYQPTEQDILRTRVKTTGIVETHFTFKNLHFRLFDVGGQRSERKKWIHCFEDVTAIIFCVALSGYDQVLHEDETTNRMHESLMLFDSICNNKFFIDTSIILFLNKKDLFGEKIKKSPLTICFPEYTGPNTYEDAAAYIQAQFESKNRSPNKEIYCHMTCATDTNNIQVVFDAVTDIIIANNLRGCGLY
# About 770 (0.35%) of roughly 220,000 compounds were called active. Inconclusive means that the source gave no clear call. Such entries were picked first, then a sample of the others. Rule as the data show it: active = binding response below about 49% or above about 150%; inconclusive = no clear call, values can overlap the other calls; inactive = in between.
# Molecular target: Guanine nucleotide-binding protein G(o) subunit alpha (Homo sapiens) (UniProt P09471)
# Test: RGS7-Galphao binding modulators, primary screen, biochemical, multiplexed bead flow cytometry (AID 1439);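 also: fluorescent Galphao held in activated GDP-AlF4 state binding bead-coupled RGS7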
# Details: at 10 µM, actives lie on both sides
row,SMILES,binding response (% of control)
1,O=C(c1ccoc1)N1CCC2(CC1)Oc1ccc(F)cc1C(=O)C21CC(c2ccc(Cl)cc2)=NO1 (configuration not stated),inconclusive: 122%
2,CCC(C)NS(=O)(=O)c1ccc(N)cc1 (configuration not stated),inconclusive: 112%
3,CN1CCN(C(=S)NC(=O)/C=C/c2cccs2)CC1,inconclusive: -15.9%
4,Cc1nc(-c2nc(-c3c(C(=O)NNC(=O)c4ccc(Cl)cc4)noc3C)cs2)cs1,inconclusive: 101%
5,CCN(CC)S(=O)(=O)c1ccc(C(=O)NCCN2C(=O)S/C(=C\c3cccnc3)C2=O)cc1,inconclusive: 105%
6,NC(=O)c1cccnc1Oc1ccccc1,inconclusive: 137%
7,O=C(Nc1nc2ccccc2c(=O)s1)c1ccco1,inconclusive: 89.6%
8,O=C(O)c1cccc(Cn2c(Cl)c(/C=N/NC(=O)c3cccc(O)c3)sc2=O)c1,inconclusive: 120%
9,Cc1ccc(NC(=S)Nc2ccc(F)cc2)c(C)c1,inconclusive: 106%
10,NC1=NC(=O)/C(=C\c2cccnc2)S1,inconclusive: 91.2%
11,Cc1nn(Cc2ccc(C(=O)NN)o2)c(C)c1Cl,inconclusive: 73.2%
12,Cc1ccc(-c2cc(C(=O)O)n[nH]2)s1,inconclusive: 93.7%
13,COc1cccc(CNc2ccc(F)c([N+](=O)[O-])c2)c1O,inconclusive: 110%
14,COc1ccccc1NC(=O)CN1C(=O)NC2(CCCCCCC2)C1=O,inactive: 100%
15,CCN1CCN(C(=O)c2ccccc2NS(=O)(=O)c2ccc(Cl)cc2)CC1,inconclusive: 112%
16,O=C(O)CCN1C(=O)c2ccncc2C1=O,inactive: 100%
17,CSc1nc2ccc(S(=O)(=O)N3CCCCC3)cc2s1,inactive: 107%
18,O=C(COC(=O)c1cccnc1)NC1CCCc2ccccc21 (configuration not stated),inconclusive: 162%
19,Cc1ccccc1C(=O)Nc1ccccc1C(=O)NCC(C)C,inconclusive: 96.1%

row,SMILES,binding response (% of control)
1,CCn1cc(C(=O)NCCCN2CCN(C)CC2)c(=O)c2cc(S(=O)(=O)N3CCc4ccccc4C3)ccc21,inactive: 106%
2,Cc1cc2c(nn1)CCc1c-2no[n+]1[O-],inconclusive: 89.6%
3,CCC(=O)C1=C(O)C(c2cccc(Oc3ccccc3)c2)CCC1=O (configuration not stated),inconclusive: 70.8%
4,Cc1ccc(/C=C2\SC(=S)N(CC3CCCO3)C2=O)o1 (configuration not stated),inconclusive: 82.7%
5,COc1ccc(-c2ccc(F)cc2)cc1[C@H]1[C@H]2C=CC[C@@H](C)[C@@H]2C(=O)N1Cc1ccccc1,inconclusive: 85.8%
6,Cn1c(SCC(=O)N/N=C/c2cccnc2)nnc1-c1ccccc1,inconclusive: 82%
7,Cc1c(NC(=S)NC(=O)c2ccco2)cccc1-c1nc2ncccc2o1,inconclusive: 87.9%
8,CC(C)CNS(=O)(=O)c1cc(C(=O)O)c(Cl)cc1Cl,inconclusive: 95.2%
9,O=C(C/C=N\O)Nc1ccc(Oc2ccccc2)cc1,inconclusive: 117%
10,Cc1ccc(-n2c(Cn3c(C)nc4ccccc43)n[nH]c2=S)cc1,inactive: 84.1%
11,O=C(C(Cc1ccccc1)n1cccc1)N1CCCCCC1 (configuration not stated),inactive: 97.3%
12,O=C(/C=C/c1ccco1)Nc1ccc2nc3n(c(=O)c2c1)CCCC3,inactive: 102%
13,COc1ccc(C(=O)CN2C(=O)NC(C)(c3ccccc3)C2=O)cc1OC (configuration not stated),inactive: 98.5%
14,CC1(C)COC(c2cccc(C3=NC(C)(C)CO3)n2)=N1,inactive: 98.4%
15,C=CCN(c1ccccc1Cl)S(=O)(=O)c1cccc(C(=O)OCC(=O)N(C)C2CCS(=O)(=O)C2)c1 (configuration not stated),inactive: 104%
16,Cc1ccc(S(=O)(=O)N(C)c2ccc(OCC(=O)Nc3cccc(-n4cnnn4)c3C)cc2)cc1,inconclusive: 338%
17,C/C(=N/OC(=O)c1ccc(C(F)(F)F)cc1)c1oc(C)nc1C,inconclusive: 110%
18,O=C(Nc1ccc(N2CCOCC2)cc1Cl)C1CCN(C(=O)OCc2ccccc2)CC1,inconclusive: 131%
19,Cc1cc2ccccn2c1C(=O)c1ccc(N/N=C/c2ccc(C(=O)O)cc2)c([N+](=O)[O-])c1,inconclusive: 97.1%

row,SMILES,binding response (% of control)
1,CC(C)(C)NC(=O)C(c1cccs1)N(Cc1cccs1)C(=O)c1csnn1 (configuration not stated),inactive: 93.7%
2,CCC1=C(OC(=O)N(CC)CC)N2C(=O)OC(=NCC(=O)OC)[C@]2(C)[C@H]2C1=CC[C@H]1C(=O)N(CC(=O)OC)C(=O)[C@H]12,inconclusive: 100%
3,Cc1ccc(C)n1-c1cccc(N)c1,inactive: 72.8%
4,CCOC(=O)N1CCN(C(=O)/C=C/c2c(C)nn(-c3ccc(F)cc3)c2Cl)CC1,inactive: 96.1%
5,Cc1cc(C)cc(N(C(C)C(=O)Nc2c(C)n(C)n(-c3ccccc3)c2=O)S(C)(=O)=O)c1 (configuration not stated),inactive: 101%
6,O=C(N/N=C/c1ccc(-c2ccc([N+](=O)[O-])cc2)o1)c1cccnc1,inconclusive: 96.9%
7,CC(C)(C)NC(NC(=O)Cc1ccccc1)C(Cl)(Cl)Cl (configuration not stated),inactive: 97.5%
8,CC1(C)OC(=O)C(=CSc2ccc(C(C)(C)C)cc2)C(=O)O1,inconclusive: 102%
9,Cc1nc2c(c(=O)n1CCC(C)C)c1nc3ccccc3nc1n2CC1CCCO1 (configuration not stated),inconclusive: 88.7%
10,COC(=O)c1nn(-c2ccc(Oc3ccccc3)cc2)c(=O)cc1O,inconclusive: 83.2%
11,O=C(N/N=C\c1ccc([N+](=O)[O-])o1)c1cncc(Br)c1,inconclusive: 94.1%
12,Cc1cccc(C)c1NC(=O)COC(=O)c1nonc1N,inactive: 107%
13,CS/C(N)=N/S(=O)(=O)c1ccc(NC(C)=O)cc1,inconclusive: 63.7%
14,Cc1ccccc1-n1c(=O)c(C#N)cc2c(=O)n3ccccc3nc21,inactive: 96.2%
15,O=C(NC1CCCCC1)C1CCCN(S(=O)(=O)c2cccc3cccnc23)C1 (configuration not stated),inconclusive: 85.7%
16,CC(C)(C)NCC(O)Cn1cc(C=O)c2ccccc21 (configuration not stated),inconclusive: 108%
17,O=C(C1Cc2ccccc2CN1C(=O)c1ccccc1)N1CCN(c2ccccc2)CC1 (configuration not stated),inconclusive: 111%
18,C/C(=N\O)C(C)(C)Nc1ccccc1F,inconclusive: 53.3%
19,Cc1ccc(C(=O)N[C@H](C(=O)OCc2nnc(-c3ccccc3)o2)C(C)C)cc1,inconclusive: 53.2%

# Compounds listed so far that contain an aryl thioether with sulfur outside any ring, in the order listed:
row,SMILES,binding response (% of control)
17,CSc1nc2ccc(S(=O)(=O)N3CCCCC3)cc2s1,inactive: 107%
6,Cn1c(SCC(=O)N/N=C/c2cccnc2)nnc1-c1ccccc1,inconclusive: 82%
8,CC1(C)OC(=O)C(=CSc2ccc(C(C)(C)C)cc2)C(=O)O1,inconclusive: 102%
